From article PMC6240266
No constants are given. Whether binding was seen depends on the method and setting. Binding seen in cells or lysates may run through a third protein. Some binding calls cover weakened binding; strength is not graded here.

Amino acid sequences for entries named in this document (tags omitted).
UniProt Q12888: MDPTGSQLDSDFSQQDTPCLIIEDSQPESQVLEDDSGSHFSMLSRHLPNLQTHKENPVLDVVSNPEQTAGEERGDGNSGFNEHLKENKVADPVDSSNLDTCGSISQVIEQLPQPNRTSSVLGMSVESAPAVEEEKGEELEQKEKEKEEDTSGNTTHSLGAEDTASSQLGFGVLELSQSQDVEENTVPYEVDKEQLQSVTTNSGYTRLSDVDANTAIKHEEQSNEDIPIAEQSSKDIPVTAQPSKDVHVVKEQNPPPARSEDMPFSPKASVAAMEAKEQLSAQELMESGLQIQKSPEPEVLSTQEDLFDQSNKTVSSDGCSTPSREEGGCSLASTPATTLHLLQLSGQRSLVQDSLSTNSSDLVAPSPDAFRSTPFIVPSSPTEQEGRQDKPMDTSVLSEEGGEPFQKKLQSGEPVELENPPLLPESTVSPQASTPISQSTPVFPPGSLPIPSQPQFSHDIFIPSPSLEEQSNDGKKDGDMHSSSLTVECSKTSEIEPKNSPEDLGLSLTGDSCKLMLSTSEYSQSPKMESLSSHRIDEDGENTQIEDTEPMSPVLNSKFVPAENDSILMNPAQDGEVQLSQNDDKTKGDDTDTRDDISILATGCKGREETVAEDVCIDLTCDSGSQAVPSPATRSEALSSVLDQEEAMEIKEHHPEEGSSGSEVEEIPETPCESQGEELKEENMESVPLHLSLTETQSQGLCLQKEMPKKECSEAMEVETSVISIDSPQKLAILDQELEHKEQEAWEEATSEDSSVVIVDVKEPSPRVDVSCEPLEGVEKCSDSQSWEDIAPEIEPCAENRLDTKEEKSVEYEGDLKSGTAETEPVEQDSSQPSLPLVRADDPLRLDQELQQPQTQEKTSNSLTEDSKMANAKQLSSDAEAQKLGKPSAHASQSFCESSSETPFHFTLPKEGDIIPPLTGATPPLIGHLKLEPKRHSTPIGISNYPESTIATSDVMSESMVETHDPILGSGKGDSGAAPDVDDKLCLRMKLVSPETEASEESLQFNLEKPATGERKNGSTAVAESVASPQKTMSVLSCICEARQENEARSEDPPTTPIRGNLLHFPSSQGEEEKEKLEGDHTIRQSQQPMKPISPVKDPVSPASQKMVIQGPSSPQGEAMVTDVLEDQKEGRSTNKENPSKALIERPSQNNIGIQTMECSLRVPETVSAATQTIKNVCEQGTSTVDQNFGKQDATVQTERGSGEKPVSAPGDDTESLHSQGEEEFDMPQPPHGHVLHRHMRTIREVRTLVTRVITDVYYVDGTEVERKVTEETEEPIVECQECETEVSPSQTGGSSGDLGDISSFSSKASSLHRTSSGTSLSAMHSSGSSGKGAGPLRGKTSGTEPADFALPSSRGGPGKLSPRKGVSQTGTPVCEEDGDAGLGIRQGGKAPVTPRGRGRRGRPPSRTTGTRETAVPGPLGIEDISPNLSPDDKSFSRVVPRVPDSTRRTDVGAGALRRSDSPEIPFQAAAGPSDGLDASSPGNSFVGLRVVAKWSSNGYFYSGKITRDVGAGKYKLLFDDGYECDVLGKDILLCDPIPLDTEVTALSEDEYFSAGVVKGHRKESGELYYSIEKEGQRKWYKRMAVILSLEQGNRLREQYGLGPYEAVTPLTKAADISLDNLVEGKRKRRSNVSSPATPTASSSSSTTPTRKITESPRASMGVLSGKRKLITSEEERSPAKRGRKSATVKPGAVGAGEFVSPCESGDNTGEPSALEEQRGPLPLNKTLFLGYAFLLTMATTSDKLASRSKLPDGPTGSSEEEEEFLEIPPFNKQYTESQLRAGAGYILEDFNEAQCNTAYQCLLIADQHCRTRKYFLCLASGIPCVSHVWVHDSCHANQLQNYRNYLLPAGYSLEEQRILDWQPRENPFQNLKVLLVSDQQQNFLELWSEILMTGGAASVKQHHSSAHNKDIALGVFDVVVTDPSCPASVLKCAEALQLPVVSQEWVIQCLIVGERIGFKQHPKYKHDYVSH
UniProt P03126: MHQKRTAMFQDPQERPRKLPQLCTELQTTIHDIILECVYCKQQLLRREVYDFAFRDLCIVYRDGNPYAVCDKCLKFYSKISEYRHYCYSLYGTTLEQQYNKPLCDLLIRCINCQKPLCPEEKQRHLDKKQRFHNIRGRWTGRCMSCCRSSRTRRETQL
UniProt P03129: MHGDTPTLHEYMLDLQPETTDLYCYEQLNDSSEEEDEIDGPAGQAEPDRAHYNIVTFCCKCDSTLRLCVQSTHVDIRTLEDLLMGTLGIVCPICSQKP

Tests used:
[1] = target: p53-binding protein 1 (human (endogenous in CaSki and NHEKs)) (UniProt Q12888); test: proximity ligation; in situ PLA (Duolink, mouse/rabbit probes) on sections of the HPV16 positive 3D reconstructed epithelium after EDTA unmasking; primary antibodies 53BP1/E6 and 53BP1/E7 overnight at 4 °C; red spots
[2] = target: p53-binding protein 1 (human (endogenous in CaSki and NHEKs)) (UniProt Q12888); test: proximity ligation; in situ PLA (Duolink, mouse/rabbit probes) on fixed, paraffin-embedded E6E7HPV16 NHEKs (2D); primary antibodies 53BP1/E6 and 53BP1/E7; red spots
[3] = target: p53-binding protein 1 (human (endogenous in CaSki and NHEKs)) (UniProt Q12888); test: proximity ligation; in situ PLA (Duolink, mouse/rabbit probes) on fixed, paraffin-embedded CaSki cells; primary antibodies 53BP1/E6 and 53BP1/E7; red spots; CaSki used as positive control

Substance	binding [1]	binding [2]	binding [3]
Human papillomavirus type 16 E6 oncoprotein (in E6E7 HPV16 transduced keratinocytes) (from UniProt P03126 1-158)	binds	binds	
Human papillomavirus type 16 E7 oncoprotein (in CaSki cells) (from UniProt P03129 1-98)			binds
Human papillomavirus type 16 E7 oncoprotein (in E6E7 HPV16 transduced keratinocytes) (from UniProt P03129 1-98)	binds	binds	
Human papillomavirus type 16 E6 oncoprotein (in CaSki cells) (from UniProt P03126 1-158)			binds
